Measurements from US7166621B2, “Pyridyloxyalkanoic acid amide derivatives useful as fungicides” (priority 2001, dated 2007).
Some of these results come from one statement about several compounds together.

System: Pythium ultimum
Experiment: Damping off, growth inhibition in potato dextrose broth, 96-well microtiter plate, photometric
Assay type: cell-based
Details: 20 ppm, 24° C., inhibition of growth determined photometrically after 48 hours

CC#CC(C)(C)NC(=O)C(CC)Oc1cncc(Cl)c1 (stereo not shown) [Compound No. 8 of Table 1, 2-(5-chloro-3-pyridyloxy)-N-(2-methylpent-3-yn-2-yl)butyramide]
control of Pythium ultimum: at least 70%
